Source: paper PMC7859179
Results are given in words; binding and its absence hold for the method and conditions named. Binding seen in cells or lysates may run through a third protein. A result given as binding can be weak or reduced; the word gives no strength. Where a sequence is shown, tags or fusion partners need not be part of it.

Biological target: T1, CiLV-C p29 capsid protein, split-YFP fusion for BiFC (citrus leprosis virus C (CiLV-C), strain CRD) (UniProt Q1KZ58)
T1 sequence: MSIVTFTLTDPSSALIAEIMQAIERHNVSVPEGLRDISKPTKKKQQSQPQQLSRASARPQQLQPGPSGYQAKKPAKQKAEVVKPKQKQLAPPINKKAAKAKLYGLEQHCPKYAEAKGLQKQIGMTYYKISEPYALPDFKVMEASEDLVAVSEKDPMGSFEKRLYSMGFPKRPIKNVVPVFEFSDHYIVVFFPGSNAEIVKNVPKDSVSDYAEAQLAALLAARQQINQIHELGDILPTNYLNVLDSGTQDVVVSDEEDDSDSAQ
Test: split reporter; BiFC with NYFP and CYFP fusions transiently co-expressed in N. benthamiana leaves; YFP fluorescence read by confocal microscopy four days post-infiltration

| Substance | binding |
| --- | --- |
| CiLV-C MPΔ1–227, CYFP fusion for BiFC (domain or fragment) | binds |
| CiLV-C MPΔ228–297, CYFP fusion for BiFC (domain or fragment) | binds |
